The list shows a part of the results.
Compound: CC[C@@H]1C(=O)N(C)c2cnc(Nc3ccc(C(=O)N[C@H]4CC[C@H](N5CCN(CC6CC6)CC5)CC4)cc3OC)nc2N1C(C)C [volasertib]
Assay: log2 fold change, soluble protein after heating vs DMSO (PISA); higher = thermal stabilisation; K562 cells, 10 uM, 30 min; active = over 0.2 and 3.5 SD of the protein, either way, in both replicates (recomputed)
Procedure, shortened: (§1)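 Quantification of soluble protein used TMTpro 16plex LC-MS/MS, with channel sums equalised. Samples were the supernatant after 21,000xg for 90 min of pooled aliquots from K562 cells (2×10^6 cells/mL) treated with 10 μM compound for 30 min, heated for 3 min over 48°C-58°C, and extracted in PBS with 0.5% NP-40 at 4°C. Values, from duplicates, describe thermal stability against control samples on a log2 fold-change scale.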

The chains behind the UniProt entries cited, without tags or fusion partners. Where a name states a change or a piece, a line headed by the entry shows the natural chain unless it says otherwise.
UniProt Q06587: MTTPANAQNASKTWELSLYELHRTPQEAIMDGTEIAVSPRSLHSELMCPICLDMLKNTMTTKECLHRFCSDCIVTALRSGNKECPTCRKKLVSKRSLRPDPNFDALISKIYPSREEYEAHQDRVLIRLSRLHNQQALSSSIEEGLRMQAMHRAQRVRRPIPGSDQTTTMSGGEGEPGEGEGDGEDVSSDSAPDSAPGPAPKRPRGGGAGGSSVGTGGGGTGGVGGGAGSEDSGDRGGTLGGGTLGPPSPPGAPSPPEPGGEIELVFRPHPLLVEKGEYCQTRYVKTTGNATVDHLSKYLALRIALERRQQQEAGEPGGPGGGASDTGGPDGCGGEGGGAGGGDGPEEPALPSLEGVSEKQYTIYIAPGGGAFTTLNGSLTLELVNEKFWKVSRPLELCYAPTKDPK
UniProt Q9UBS8: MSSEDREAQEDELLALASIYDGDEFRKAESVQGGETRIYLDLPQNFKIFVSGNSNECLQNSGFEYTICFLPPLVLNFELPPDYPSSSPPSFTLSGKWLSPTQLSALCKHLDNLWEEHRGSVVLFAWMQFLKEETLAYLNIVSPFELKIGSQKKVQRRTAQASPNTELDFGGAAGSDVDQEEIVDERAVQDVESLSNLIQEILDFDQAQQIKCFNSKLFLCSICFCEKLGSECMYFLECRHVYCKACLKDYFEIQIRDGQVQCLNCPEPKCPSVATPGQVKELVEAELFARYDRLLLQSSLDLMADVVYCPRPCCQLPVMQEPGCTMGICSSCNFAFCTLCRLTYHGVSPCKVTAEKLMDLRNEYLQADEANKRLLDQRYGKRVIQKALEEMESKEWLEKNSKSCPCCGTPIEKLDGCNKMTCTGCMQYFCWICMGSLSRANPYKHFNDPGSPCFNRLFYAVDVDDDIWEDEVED
UniProt P34096: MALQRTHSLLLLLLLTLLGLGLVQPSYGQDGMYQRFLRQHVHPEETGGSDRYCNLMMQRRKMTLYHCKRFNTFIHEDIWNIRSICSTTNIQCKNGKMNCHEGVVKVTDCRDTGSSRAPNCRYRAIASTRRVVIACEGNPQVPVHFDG
UniProt Q96D71: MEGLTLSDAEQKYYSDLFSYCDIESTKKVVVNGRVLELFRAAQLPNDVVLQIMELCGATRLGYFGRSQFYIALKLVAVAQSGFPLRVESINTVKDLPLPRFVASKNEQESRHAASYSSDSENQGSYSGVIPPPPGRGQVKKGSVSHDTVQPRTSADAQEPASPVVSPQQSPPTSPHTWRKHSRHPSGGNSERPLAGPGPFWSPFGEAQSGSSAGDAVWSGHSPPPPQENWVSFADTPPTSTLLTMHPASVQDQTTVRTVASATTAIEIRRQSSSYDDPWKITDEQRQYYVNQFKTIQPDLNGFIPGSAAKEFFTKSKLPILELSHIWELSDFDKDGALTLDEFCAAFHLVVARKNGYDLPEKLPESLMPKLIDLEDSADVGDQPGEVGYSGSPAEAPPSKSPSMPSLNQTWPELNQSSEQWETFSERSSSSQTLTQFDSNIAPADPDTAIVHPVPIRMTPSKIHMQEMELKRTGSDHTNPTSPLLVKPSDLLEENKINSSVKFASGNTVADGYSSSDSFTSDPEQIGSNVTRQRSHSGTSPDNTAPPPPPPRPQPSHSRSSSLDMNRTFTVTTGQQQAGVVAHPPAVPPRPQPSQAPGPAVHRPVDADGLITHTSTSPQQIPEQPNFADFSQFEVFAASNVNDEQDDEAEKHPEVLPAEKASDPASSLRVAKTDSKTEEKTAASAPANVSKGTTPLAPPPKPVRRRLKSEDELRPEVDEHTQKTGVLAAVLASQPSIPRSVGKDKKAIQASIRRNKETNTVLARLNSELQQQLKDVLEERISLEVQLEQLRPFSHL
UniProt Q8WZ73: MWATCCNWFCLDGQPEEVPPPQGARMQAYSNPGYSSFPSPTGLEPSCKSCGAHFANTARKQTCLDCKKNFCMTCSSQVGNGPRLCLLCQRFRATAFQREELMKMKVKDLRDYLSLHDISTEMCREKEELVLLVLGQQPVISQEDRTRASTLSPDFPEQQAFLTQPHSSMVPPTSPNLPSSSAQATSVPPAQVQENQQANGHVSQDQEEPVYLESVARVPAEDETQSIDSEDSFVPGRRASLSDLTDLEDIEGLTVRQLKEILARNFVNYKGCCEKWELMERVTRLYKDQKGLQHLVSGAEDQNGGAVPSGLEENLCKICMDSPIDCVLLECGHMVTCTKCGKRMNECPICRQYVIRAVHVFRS
UniProt Q9BWE0: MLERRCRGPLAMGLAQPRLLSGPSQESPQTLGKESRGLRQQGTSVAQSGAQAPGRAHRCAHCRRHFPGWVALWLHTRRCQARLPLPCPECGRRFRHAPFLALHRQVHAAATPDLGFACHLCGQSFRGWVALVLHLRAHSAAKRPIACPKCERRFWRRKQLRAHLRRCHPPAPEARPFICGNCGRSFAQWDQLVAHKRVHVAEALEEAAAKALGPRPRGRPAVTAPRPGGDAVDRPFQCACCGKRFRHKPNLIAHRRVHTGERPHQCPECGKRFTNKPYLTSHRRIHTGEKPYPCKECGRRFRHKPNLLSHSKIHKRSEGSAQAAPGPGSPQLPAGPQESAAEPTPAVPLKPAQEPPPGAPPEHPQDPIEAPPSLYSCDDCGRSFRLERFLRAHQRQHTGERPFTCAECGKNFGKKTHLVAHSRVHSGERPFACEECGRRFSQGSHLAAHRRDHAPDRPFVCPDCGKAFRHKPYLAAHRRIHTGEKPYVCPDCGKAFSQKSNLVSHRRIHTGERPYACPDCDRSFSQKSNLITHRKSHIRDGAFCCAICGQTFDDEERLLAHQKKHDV
UniProt Q96PM5: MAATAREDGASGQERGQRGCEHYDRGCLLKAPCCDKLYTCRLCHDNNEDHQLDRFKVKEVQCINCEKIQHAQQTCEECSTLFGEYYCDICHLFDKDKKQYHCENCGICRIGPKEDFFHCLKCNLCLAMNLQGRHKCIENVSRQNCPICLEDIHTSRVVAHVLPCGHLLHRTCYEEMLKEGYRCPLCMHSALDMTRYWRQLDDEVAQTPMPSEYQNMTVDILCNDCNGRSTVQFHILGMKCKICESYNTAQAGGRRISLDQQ
UniProt Q9P0P0: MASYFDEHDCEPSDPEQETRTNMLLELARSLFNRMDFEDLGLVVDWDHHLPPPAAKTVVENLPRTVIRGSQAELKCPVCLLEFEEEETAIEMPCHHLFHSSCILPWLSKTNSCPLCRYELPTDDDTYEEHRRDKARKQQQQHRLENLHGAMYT
UniProt P08134, whole entry, looked up: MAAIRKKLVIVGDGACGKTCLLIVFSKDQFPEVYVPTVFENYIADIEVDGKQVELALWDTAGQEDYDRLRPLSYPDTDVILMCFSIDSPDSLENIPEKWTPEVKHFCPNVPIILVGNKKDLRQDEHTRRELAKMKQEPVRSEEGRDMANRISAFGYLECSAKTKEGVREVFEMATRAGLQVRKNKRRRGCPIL
UniProt Q9BWF3: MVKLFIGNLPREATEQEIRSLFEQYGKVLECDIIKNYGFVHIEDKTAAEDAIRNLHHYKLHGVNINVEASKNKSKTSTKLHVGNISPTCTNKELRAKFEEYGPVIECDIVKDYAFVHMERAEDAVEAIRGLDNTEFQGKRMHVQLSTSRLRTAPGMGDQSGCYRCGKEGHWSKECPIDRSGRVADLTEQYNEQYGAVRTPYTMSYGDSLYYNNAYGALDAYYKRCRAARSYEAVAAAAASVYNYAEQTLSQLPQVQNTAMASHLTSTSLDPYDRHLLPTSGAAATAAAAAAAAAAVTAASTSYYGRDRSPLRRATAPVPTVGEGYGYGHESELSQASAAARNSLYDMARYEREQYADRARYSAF
UniProt P52758: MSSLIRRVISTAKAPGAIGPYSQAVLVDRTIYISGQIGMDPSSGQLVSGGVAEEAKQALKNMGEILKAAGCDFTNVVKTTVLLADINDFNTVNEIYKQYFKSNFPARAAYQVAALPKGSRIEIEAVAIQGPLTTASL
UniProt Q96NA2: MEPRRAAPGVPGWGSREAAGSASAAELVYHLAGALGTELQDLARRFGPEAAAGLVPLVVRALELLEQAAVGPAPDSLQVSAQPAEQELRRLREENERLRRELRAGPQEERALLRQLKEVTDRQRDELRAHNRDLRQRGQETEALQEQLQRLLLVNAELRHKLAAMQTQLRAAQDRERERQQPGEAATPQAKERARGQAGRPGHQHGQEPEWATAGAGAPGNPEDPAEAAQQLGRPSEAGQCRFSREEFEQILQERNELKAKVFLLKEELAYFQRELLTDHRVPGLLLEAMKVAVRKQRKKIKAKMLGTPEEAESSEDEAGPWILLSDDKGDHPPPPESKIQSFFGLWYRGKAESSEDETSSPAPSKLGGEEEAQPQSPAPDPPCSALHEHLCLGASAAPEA
UniProt Q5TBB1: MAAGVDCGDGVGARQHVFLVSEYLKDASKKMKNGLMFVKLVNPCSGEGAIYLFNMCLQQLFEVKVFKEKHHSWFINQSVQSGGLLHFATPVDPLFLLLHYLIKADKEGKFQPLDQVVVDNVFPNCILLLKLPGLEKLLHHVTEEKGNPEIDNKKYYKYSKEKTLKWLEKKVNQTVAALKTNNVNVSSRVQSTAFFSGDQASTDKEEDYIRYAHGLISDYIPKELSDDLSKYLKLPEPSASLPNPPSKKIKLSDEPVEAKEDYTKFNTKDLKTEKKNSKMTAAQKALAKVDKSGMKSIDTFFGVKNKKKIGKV
UniProt Q96K19: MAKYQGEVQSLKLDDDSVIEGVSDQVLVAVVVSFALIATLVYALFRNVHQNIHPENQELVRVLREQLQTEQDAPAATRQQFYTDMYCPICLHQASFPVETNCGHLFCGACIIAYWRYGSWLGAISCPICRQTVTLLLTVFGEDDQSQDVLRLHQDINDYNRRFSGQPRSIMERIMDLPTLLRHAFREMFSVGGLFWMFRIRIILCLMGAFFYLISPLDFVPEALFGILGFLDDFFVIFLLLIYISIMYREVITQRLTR
UniProt P35249, whole entry, looked up: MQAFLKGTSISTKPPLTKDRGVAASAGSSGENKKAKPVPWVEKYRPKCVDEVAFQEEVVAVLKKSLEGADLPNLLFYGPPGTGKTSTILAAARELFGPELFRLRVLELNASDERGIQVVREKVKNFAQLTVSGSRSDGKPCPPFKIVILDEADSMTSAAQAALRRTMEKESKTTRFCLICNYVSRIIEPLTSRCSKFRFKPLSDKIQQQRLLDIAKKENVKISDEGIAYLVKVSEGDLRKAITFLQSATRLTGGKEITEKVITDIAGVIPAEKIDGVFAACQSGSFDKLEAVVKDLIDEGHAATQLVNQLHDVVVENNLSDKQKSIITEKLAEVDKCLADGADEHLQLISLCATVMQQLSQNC
UniProt O00287: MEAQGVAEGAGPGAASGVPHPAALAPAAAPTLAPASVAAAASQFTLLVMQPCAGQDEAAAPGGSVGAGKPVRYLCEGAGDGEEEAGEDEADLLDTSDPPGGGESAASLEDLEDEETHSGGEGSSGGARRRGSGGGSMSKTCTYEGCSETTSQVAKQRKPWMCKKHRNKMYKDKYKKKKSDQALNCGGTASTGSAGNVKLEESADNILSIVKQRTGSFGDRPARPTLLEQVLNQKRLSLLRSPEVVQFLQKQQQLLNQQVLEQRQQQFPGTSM
UniProt Q5VTB9: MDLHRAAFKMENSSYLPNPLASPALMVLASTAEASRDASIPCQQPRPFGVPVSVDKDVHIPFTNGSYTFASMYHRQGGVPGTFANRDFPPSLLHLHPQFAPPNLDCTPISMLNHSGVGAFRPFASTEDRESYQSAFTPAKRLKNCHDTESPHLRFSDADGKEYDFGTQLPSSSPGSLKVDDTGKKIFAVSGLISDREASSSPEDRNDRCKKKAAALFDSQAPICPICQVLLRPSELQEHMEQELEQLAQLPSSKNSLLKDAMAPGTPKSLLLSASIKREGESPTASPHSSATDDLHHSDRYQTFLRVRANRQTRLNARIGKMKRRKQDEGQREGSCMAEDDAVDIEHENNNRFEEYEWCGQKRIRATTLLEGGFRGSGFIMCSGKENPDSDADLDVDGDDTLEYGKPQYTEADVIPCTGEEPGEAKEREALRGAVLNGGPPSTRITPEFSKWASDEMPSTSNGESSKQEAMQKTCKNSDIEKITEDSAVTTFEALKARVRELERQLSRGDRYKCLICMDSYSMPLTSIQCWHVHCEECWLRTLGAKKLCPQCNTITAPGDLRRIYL
UniProt A6NED2: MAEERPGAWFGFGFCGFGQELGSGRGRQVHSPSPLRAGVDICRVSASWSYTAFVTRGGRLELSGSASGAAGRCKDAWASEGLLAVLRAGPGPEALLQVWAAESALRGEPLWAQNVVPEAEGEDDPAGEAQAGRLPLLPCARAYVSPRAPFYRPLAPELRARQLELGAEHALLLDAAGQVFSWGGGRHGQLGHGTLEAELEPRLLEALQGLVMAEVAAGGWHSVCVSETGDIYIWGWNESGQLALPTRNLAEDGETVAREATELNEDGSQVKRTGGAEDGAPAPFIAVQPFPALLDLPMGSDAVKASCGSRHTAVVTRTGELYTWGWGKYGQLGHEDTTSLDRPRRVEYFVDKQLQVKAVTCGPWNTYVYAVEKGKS
UniProt Q8TAC1: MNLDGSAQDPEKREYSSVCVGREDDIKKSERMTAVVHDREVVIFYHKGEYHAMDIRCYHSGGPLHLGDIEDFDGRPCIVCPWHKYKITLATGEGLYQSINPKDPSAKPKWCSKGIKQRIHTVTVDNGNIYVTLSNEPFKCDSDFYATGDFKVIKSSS

| Target | log2 fold change |
| --- | --- |
| RELN (UniProt P78509) | inactive: 0.037 |
| RING1 (UniProt Q06587) | inactive: -0.283 |
| RNF14 (UniProt Q9UBS8) | active: -0.288 |
| RNASE4 (UniProt P34096) | inactive: 0 |
| RBM42 (UniProt Q9BTD8) | inactive: 0.09 |
| RFC5 (UniProt P40937) | inactive: -0.06 |
| REPS1 (UniProt Q96D71) | inactive: -0.152 |
| RFK (UniProt Q969G6) | inactive: -0.002 |
| RNF126 (UniProt Q9BV68) | inactive: -0.135 |
| RFFL (UniProt Q8WZ73) | inactive: -0.198 |
| REPIN1 isoform 4 (UniProt Q9BWE0) | inactive: 0.027 |
| RIPK2 (UniProt O43353) | inactive: -0.053 |
| RIMKLB (UniProt Q9ULI2) | inactive: 0.032 |
| RCHY1 (UniProt Q96PM5) | inactive: -0.102 |
| RHOG (UniProt P84095) | inactive: 0.024 |
| RNF181 (UniProt Q9P0P0) | inactive: 0.073 |
| RHOC (UniProt P08134) | inactive: 0.023 |
| RBM4 (UniProt Q9BWF3) | active: -0.3 |
| RMDN1 (UniProt Q96DB5) | inactive: -0.109 |
| RIDA (UniProt P52758) | inactive: 0.036 |

| Target | log2 fold change |
| --- | --- |
| RILP (UniProt Q96NA2) | inactive: -0.112 |
| RNF20 (UniProt Q5VTR2) | inactive: -0.267 |
| RNASEH2B (UniProt Q5TBB1) | inactive: -0.156 |
| RBM7 (UniProt Q9Y580) | inactive: 0.084 |
| RCC1 isoform 2 (UniProt P18754) | inactive: -0.063 |
| RBP5 (UniProt P82980) | inactive: 0.287 |
| RNF138 (UniProt Q8WVD3) | inactive: -0.285 |
| RNF170 (UniProt Q96K19) | inactive: 0.462 |
| RMND5A (UniProt Q9H871) | inactive: -0.168 |
| RFC4 (UniProt P35249) | inactive: -0.054 |
| RFXAP (UniProt O00287) | inactive: 0.048 |
| RIF1 (UniProt Q5UIP0) | inactive: -0.12 |
| RNF220 (UniProt Q5VTB9) | inactive: -0.114 |
| REEP3 (UniProt Q6NUK4) | inactive: 0.21 |
| RCCD1 (UniProt A6NED2) | inactive: 0.004 |
| RCC2 (UniProt Q9P258) | inactive: -0.018 |
| RFC2 (UniProt P35250) | inactive: -0.04 |
| RFESD isoform 2 (UniProt Q8TAC1) | inactive: 0.089 |
| RIOK2 (UniProt Q9BVS4) | inactive: 0.267 |

Compound: CC[C@H](C)N1C=C(C2=C(C=C(C=C21)C3=CN=C(C=C3)N4CCNCC4)C(=O)NCC5=C(C=C(NC5=O)C)C)C
Assay: as above
Procedure, shortened: as §1

| Target | log2 fold change |
| --- | --- |
| RELN (UniProt P78509) | inactive: 0.218 |
| RING1 (UniProt Q06587) | inactive: 0.071 |
| RNF14 (UniProt Q9UBS8) | inactive: 0.037 |
| RNASE4 (UniProt P34096) | inactive: -0.075 |
| RBM42 (UniProt Q9BTD8) | inactive: 0.042 |
| RFC5 (UniProt P40937) | inactive: 0.04 |
| REPS1 (UniProt Q96D71) | inactive: -0.053 |
| RFK (UniProt Q969G6) | inactive: 0 |
| RNF126 (UniProt Q9BV68) | inactive: -0.014 |
| RFFL (UniProt Q8WZ73) | inactive: 0.061 |
| REPIN1 isoform 4 (UniProt Q9BWE0) | inactive: 0.001 |
| RIPK2 (UniProt O43353) | inactive: 0.053 |
| RIMKLB (UniProt Q9ULI2) | inactive: 0.047 |
| RCHY1 (UniProt Q96PM5) | inactive: -0.001 |
| RHOG (UniProt P84095) | inactive: -0.029 |
| RNF181 (UniProt Q9P0P0) | inactive: 0 |
| RHOC (UniProt P08134) | inactive: -0.024 |
| RBM4 (UniProt Q9BWF3) | inactive: 0.057 |
| RMDN1 (UniProt Q96DB5) | inactive: 0.042 |
| RIDA (UniProt P52758) | inactive: -0.037 |

| Target | log2 fold change |
| --- | --- |
| RILP (UniProt Q96NA2) | inactive: 0.008 |
| RNF20 (UniProt Q5VTR2) | inactive: 0.04 |
| RNASEH2B (UniProt Q5TBB1) | inactive: 0.059 |
| RBM7 (UniProt Q9Y580) | inactive: 0.012 |
| RCC1 isoform 2 (UniProt P18754) | inactive: 0.044 |
| RBP5 (UniProt P82980) | inactive: 0.048 |
| RNF138 (UniProt Q8WVD3) | inactive: 0.143 |
| RNF170 (UniProt Q96K19) | inactive: 0.095 |
| RMND5A (UniProt Q9H871) | inactive: -0.005 |
| RFC4 (UniProt P35249) | inactive: 0.028 |
| RFXAP (UniProt O00287) | inactive: 0.034 |
| RIF1 (UniProt Q5UIP0) | inactive: 0.052 |
| RNF220 (UniProt Q5VTB9) | inactive: 0.085 |
| REEP3 (UniProt Q6NUK4) | inactive: 0.046 |
| RCCD1 (UniProt A6NED2) | inactive: -0.024 |
| RCC2 (UniProt Q9P258) | inactive: 0.033 |
| RFC2 (UniProt P35250) | inactive: 0.024 |
| RFESD isoform 2 (UniProt Q8TAC1) | inactive: -0.011 |
| RIOK2 (UniProt Q9BVS4) | inactive: 0.015 |

From the supplement of paper PMC10849652
